PubChem BioAssay AID1159578 – Peter MacCallum Cancer Centre, 2015

- Screen: 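Genome-wide hunt for genes controlling movement of lymphatic endothelial cells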 (primary screen)
- Cell system: human lymphatic endothelial cells
- Knock-down reagent: siRNA pool against human genes, 40 nM
- Duration: 48 h after transfection
- Read-out: 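Cells stained with dye and imaged after a scratch; covered wound area and nuclei counted, duplicates averaged, migration set against mock wells and turned into a robust z-score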
- Scale: migration robust z-score: higher = faster migration into the scratch; migration relative to mock: higher = more scratch area covered than mock; nuclei per well: higher = more cells in the well
- Rule for the call: 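Migration changed when robust z exceeds 2 or falls below -2 and mean nuclei number is at least 3300; otherwise not called changed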
- Calls: active = migration changed; inactive = no migration change, or too few cells
Shown is a random part of about 18,000 deposited reagents. About 1,030 of all reagents (5.7%) count as active. 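Inactive calls also include pools with fewer than 3300 nuclei, whose migration was not assessed.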 Raw values vary from plate to plate and are shown uncorrected. Entries without a mark were called inactive.

Gene	migration robust z-score	migration class with cell-count check	migration relative to mock	nuclei per well, duplicate mean
ZNF517	0.85	migration z between -2 and 2; enough cells	1.1	6017
ENTPD4	1.82	migration z between -2 and 2; enough cells	1.15	5842
SCYL3	-1.46	migration z between -2 and 2; enough cells	0.52	3989
GRM8	0.42	migration z between -2 and 2; enough cells	0.88	6843
UGT1A8	0.29	migration z between -2 and 2; enough cells	0.86	6534
FAS	-1.48	under 3300 nuclei; migration not judged	0.52	3185
SH3BP4	0.14	migration z between -2 and 2; enough cells	0.92	5116
NAT2	1.25	migration z between -2 and 2; enough cells	1.04	3902
RERG	0.13	migration z between -2 and 2; enough cells	0.83	7393
RTF1	-0.9	migration z between -2 and 2; enough cells	0.65	5291
PML	1.12	migration z between -2 and 2; enough cells	1.02	6794
AQP2	-0.24	migration z between -2 and 2; enough cells	0.76	4949
SLC6A14	0.13	migration z between -2 and 2; enough cells	0.83	5178
DENND1C	-0.96	migration z between -2 and 2; enough cells	0.64	5470

4 of these entries, reformatted:
RTF1
- migration robust z-score: -0.9
- migration class with cell-count check: migration z between -2 and 2; enough cells
- migration relative to mock: 0.65
- nuclei per well, duplicate mean: 5291

PML
- migration robust z-score: 1.12
- migration class with cell-count check: migration z between -2 and 2; enough cells
- migration relative to mock: 1.02
- nuclei per well, duplicate mean: 6794

AQP2
- migration robust z-score: -0.24
- migration class with cell-count check: migration z between -2 and 2; enough cells
- migration relative to mock: 0.76
- nuclei per well, duplicate mean: 4949

SLC6A14
- migration robust z-score: 0.13
- migration class with cell-count check: migration z between -2 and 2; enough cells
- migration relative to mock: 0.83
- nuclei per well, duplicate mean: 5178

Additional reagents follow:
Gene	migration robust z-score	migration class with cell-count check	migration relative to mock	nuclei per well, duplicate mean
MT1H	1.46	migration z between -2 and 2; enough cells	1.27	6240
PGAP2	1.02	migration z between -2 and 2; enough cells	1.15	6420
SLC16A6	-0.21	migration z between -2 and 2; enough cells	0.76	5719
SUPV3L1	1.09	migration z between -2 and 2; enough cells	1.02	6112
ENTHD1	0.57	migration z between -2 and 2; enough cells	1.04	5696
ITPR2	-0.52	migration z between -2 and 2; enough cells	0.7	5218
ACBD3	-1.7	migration z between -2 and 2; enough cells	0.46	5154
RAB6A	0.6	migration z between -2 and 2; enough cells	0.92	5234
PIGV	-0.77	migration z between -2 and 2; enough cells	0.68	6356
CCDC24	-0.48	migration z between -2 and 2; enough cells	0.76	6586
SHQ1	0.76	migration z between -2 and 2; enough cells	1.08	5880
TIMM21	1.5	migration z between -2 and 2; enough cells	1.27	6351
DEAF1	-0.22	migration z between -2 and 2; enough cells	0.83	5602
WDR45B	1.47	migration z between -2 and 2; enough cells	1.26	6689
IL18	0.74	migration z between -2 and 2; enough cells	1.07	5853
RRAGD	-0.32	migration z between -2 and 2; enough cells	0.74	5386
PAICS	-0.34	migration z between -2 and 2; enough cells	0.74	5550
DMRT1	0.65	migration z between -2 and 2; enough cells	0.93	6848
OR6C75	0.57	migration z between -2 and 2; enough cells	1.03	4758
NPRL3	0.14	migration z between -2 and 2; enough cells	0.92	5616
RLN2	-0.49	migration z between -2 and 2; enough cells	0.76	4784
CXCL8	-0.5	migration z between -2 and 2; enough cells	0.76	5552
MBD5	-1.58	migration z between -2 and 2; enough cells	0.48	4074
NLE1	0	migration z between -2 and 2; enough cells	0.8	5354
DMRT2	-0.57	migration z between -2 and 2; enough cells	0.7	5000
